From the supplement of paper PMC9135407 come the findings set out here.

For the test, the system named is primary human hepatic stellate cells (donor 1). As to the kind of experiment: percent Bodipy-positive cells; higher = more lipid droplet accumulation. The settings on record: 48 h. The procedure: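 Primary lipid accumulation screen in primary human hepatic stellate cell myofibroblasts (donor 1, passage 8) in 384-well plates. 100 nL of library compound was pin-transferred into 30 µL medium in duplicate, and cells were treated for 48 h. The 'Scaled' score combines distance from plate baseline, toxicity and reproducibility penalties, and is normalised to nortriptyline (positive) and DMSO (negative) controls on each plate. A hit is defined as scaled >0.85 or among the top 3 wells per plate.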

Where [1] appears, read: library stock concentration: 3.33 mM.
[2] abbreviates: library stock concentration: 10 mM.
The mark [3] stands for this setting: library stock concentration: 400 uM.
Setting [4] is: library stock concentration: 80 uM.
Where [5] appears, read: library stock concentration: 2 mM.
The mark [6] stands for this setting: library stock concentration: 1 mM.
Where [7] appears, read: library stock concentration: 2.3 mM.

Several values for one entry are separate records, joined by “and”; a condition that tells them apart may be missing. Equal values may be shown once. Where a name gives a salt, the structure may show the parent alone. ± gives the standard deviation of the averaged measurements. The list shows a part of the results. Part of the spread comes from offsets between plates or batches.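 Primary human stellate myofibroblasts activated in culture; inactivation shown by regained lipid droplets. Readout: fraction of Hoechst-counted cells exceeding a per-plate Bodipy threshold, duplicate wells, each plate with DMSO negative and nortriptyline positive controls. Hits: control-normalized score beyond the plate's top-tenth-percentile nortriptyline wells, or among its three best wells. Final well concentrations unstated.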

As to `C=C[C@H]1CN2CC[C@H]1C[C@H]2[C@H](O)c1ccnc2ccc(OC)cc12` [Quinine], the “percent Bodipy-positive cells” value (library stock concentration: 6.2 mM) came out at 21.4 ± 0.69%.

As to `C=C[C@H]1CN2CC[C@H]1C[C@H]2[C@H](O)c1ccnc2ccc(OC)cc12` [Quinine HCl Dihydrate], the “percent Bodipy-positive cells” value is, setting by setting: under setting [1], 15 ± 2%; under setting [2], 34.5 ± 4.5%. On to `C=C[C@H]1CN2CC[C@H]1C[C@H]2[C@H](O)c1ccnc2ccc(OC)cc12` [Quinine sulfate], for which, where the note is “library stock concentration: 4.7 mM”, the “percent Bodipy-positive cells” value is 44.1 ± 5.9%.

Turning to `O=C(/C=C/c1ccccc1)c1ccc(O[C@@H]2O[C@H](CO)[C@@H](O)[C@H](O)[C@H]2O)cc1O` [2',4'-dihydroxychalcone 4'-glucoside], the “percent Bodipy-positive cells” value under setting [2] was 20.4 ± 3.5%. For `COc1ccc(-c2ccc3ncc4c(c3c2)n(-c2ccc(N3CCNCC3)c(C(F)(F)F)c2)c(=O)n4C)cn1.O=C(O)/C=C\C(=O)O`, the “percent Bodipy-positive cells” value under setting [3] stood at 97.5 ± 1.8%. On to `CCCCCCCCCCCCCCCCn1cc[n+](Cc2ccccc2)c1C` [eEF-2 Kinase Inhibitor, NH125], for which the “percent Bodipy-positive cells” value under setting [1] was 35.3 ± 3.1%.

For `CCCCCCCCCCCCCCCCn1cc[n+](Cc2ccccc2)c1C`, the “percent Bodipy-positive cells” value under setting [4] was found to be 13.3 ± 9.3%; the “percent Bodipy-positive cells” value under setting [3] turned out to be 16.4 ± 5.4%; the “percent Bodipy-positive cells” value under setting [5] came out at 17.8 ± 7.1%; the “percent Bodipy-positive cells” value under setting [2] is 100% and 94.9%.

For `CC[P](CC)(CC)=[Au][S][C@@H]1O[C@H](COC(C)=O)[C@@H](OC(C)=O)[C@H](OC(C)=O)[C@H]1OC(C)=O` [Auranofin], the “percent Bodipy-positive cells” value (library stock concentration: 2.9 mM) amounted to 99.62 ± 0.54%. As for `N[C@@H](Cn1ccc(=O)n(Cc2ccccc2C(=O)O)c1=O)C(=O)O`, the “percent Bodipy-positive cells” value under setting [2] is 6.4% and 4.55%. Regarding `CCCCC[C@H](O)/C=C/[C@H]1[C@H](O)CC(=O)[C@@H]1C/C=C\CCCC(=O)O` [Prostaglandin  E2], under setting [6], the “percent Bodipy-positive cells” value turned out to be 11.4 ± 8.3%. For `CCCCC[C@H](O)/C=C/[C@H]1[C@H](O)CC(=O)[C@@H]1C/C=C\CCCC(=O)O` [Prostaglandin E2], the “percent Bodipy-positive cells” value came to 22.4 ± 7.3% under setting [6] and 6.94 ± 3% under setting [2].

As to `CCCCC[C@H](O)/C=C/[C@H]1[C@H](O)CC(=O)[C@@H]1C/C=C\CCCC(=O)O` [Dinoprostone], for the setting “library stock concentration: 5.7 mM”, the “percent Bodipy-positive cells” value is 9.28 ± 1.2%. For `CCCCC[C@H](O)/C=C/[C@@H]1[C@@H](C/C=C\CCCCCC(=O)O)[C@@H](O)C[C@H]1O` [1a,1b-dihomo Prostaglandin F2.alpha.], under setting [6], the “percent Bodipy-positive cells” value turned out to be 14.9 ± 3.7%.

As for `CCCn1c(=O)c2[nH]c(C3CCCC3)nc2n(CCC)c1=O` [8-Cyclopentyl-1,3-dipropylxanthine], the “percent Bodipy-positive cells” value under setting [2] amounted to 56.5 ± 6.8%. `CCCn1c(=O)c2[nH]c(C3CCCC3)nc2n(CCC)c1=O`: the “percent Bodipy-positive cells” value under setting [2] came to 5.54 ± 0.22%. As to `Cc1ccc(S(=O)(=O)/C=C/C#N)cc1`, under setting [2], the “percent Bodipy-positive cells” value turned out to be 90.6 ± 1.3%. As to `CC(=O)N[C@@H](CSC/C=C(\C)CC/C=C(\C)CC/C=C(\C)CCC=C(C)C)C(=O)O` [N-acetyl-S-geranylgeranyl-L-Cysteine], the “percent Bodipy-positive cells” value under setting [6] is 9.46% and 13.3%. Take `O=C(CCNNC(=O)c1ccncc1)NCc1ccccc1` [Nialamide]: the “percent Bodipy-positive cells” value was found to be 12.4 ± 2.7%. In addition, the “percent Bodipy-positive cells” value (library stock concentration: 6.7 mM) is 7.84% and 14%. In addition, under setting [2], the “percent Bodipy-positive cells” value is 55.4 ± 3.9%. `O=C(CCNNC(=O)c1ccncc1)NCc1ccccc1`: the “percent Bodipy-positive cells” value under setting [2] came to 8.07 ± 2.4%.

Regarding `Cc1cnc(-c2ccccc2C(C)C)nc1NCc1ccc(-n2ccnn2)cc1`, the “percent Bodipy-positive cells” value came to 33.3 ± 6.8% under setting [1] and 39.9 ± 12% under setting [2].

Regarding `N/C(=N\C(=O)c1nc(Cl)c(N)nc1N)NCc1ccccc1` [Benzamil], the “percent Bodipy-positive cells” value (library stock concentration: 6.3 mM) worked out at 35.3 ± 8.9%.

As for `N/C(=N\C(=O)c1nc(Cl)c(N)nc1N)NCc1ccccc1` [Benzamil hydrochloride], the “percent Bodipy-positive cells” value was determined as 40.1 ± 18%. Turning to `CSc1nc2cc(Cl)c(Oc3cccc(Cl)c3Cl)cc2[nH]1`, the “percent Bodipy-positive cells” value under setting [2] was 9.97 ± 1.8%. As for `CSc1nc2cc(Cl)c(Oc3cccc(Cl)c3Cl)cc2[nH]1` [Triclabendazole], the “percent Bodipy-positive cells” value amounted to 9.07 ± 2.2% under setting [1] and 33 ± 10% under setting [2]. For the compound `Cl.O=C(CCCCCN1CCN(c2ccccc2-c2ccccc2)CC1)NC1CCCc2ccccc21` (stereo not drawn) [LP 12 hydrochloride hydrate], the “percent Bodipy-positive cells” value under setting [2] amounted to 80.7 ± 2.2%.

As to `Cc1nc2ccccn2c(=O)c1CCN1CCC(C(=O)c2ccc(F)cc2)CC1`, the “percent Bodipy-positive cells” value under setting [2] amounted to 25.7 ± 3.4%. In the case of `Cc1nc2ccccn2c(=O)c1CCN1CCC(C(=O)c2ccc(F)cc2)CC1` [Pirenperone], the “percent Bodipy-positive cells” value was 40.1 ± 3.5%. Where the note is “library stock concentration: 5.1 mM”, the “percent Bodipy-positive cells” value came out at 20.2 ± 7%. For the same compound, under setting [2], the “percent Bodipy-positive cells” value was 34.6% and 58.2%. As for `Nc1ccc(-c2ccc3ncc4ccc(=O)n(-c5cccc(C(F)(F)F)c5)c4c3c2)cn1` [Torin 2], the “percent Bodipy-positive cells” value by setting is: under setting [1], 15.9 ± 1.2%; under setting [2], 37.3 ± 5.3%.

`Nc1ccc(-c2ccc3ncc4ccc(=O)n(-c5cccc(C(F)(F)F)c5)c4c3c2)cn1` [Torin2]: the “percent Bodipy-positive cells” value reads like this: under setting [4], 4.95 ± 1.7%; under setting [3], 9.5 ± 6.4%; under setting [5], 19.6 ± 12%; under setting [2], 31.2 ± 9.6%.

As for `C(=C/CCN(C)C)(/c1c2cccc1)\c3c(cccc3)C=C2.Cl` [Cyclobenzaprine hydrochloride], the “percent Bodipy-positive cells” value under setting [2] was found to be 96.93 ± 0.23%. On to `Nc1nc(N)c(N=O)c(OCC2CCCCC2)n1`, for which the “percent Bodipy-positive cells” value is, setting by setting: under setting [1], 27.6 ± 7.2%; under setting [2], 16.6% and 13.6%. Turning to `NC(=O)c1cnccn1`, the “percent Bodipy-positive cells” value under setting [2] was determined as 31.3 ± 4.7%. `NC(=O)c1cnccn1` [Pyrazinamide]: the “percent Bodipy-positive cells” value was 35.1 ± 3.7%. Besides, under setting [1], the “percent Bodipy-positive cells” value was found to be 9.06 ± 1.3%. For the same compound, the “percent Bodipy-positive cells” value under setting [2] was 10.5% and 11.3%. In addition, the “percent Bodipy-positive cells” value (library stock concentration: 16.2 mM) is 15 ± 1.5%. With `NC(=O)c1cnccn1` [Pyrazinecarboxamide], the “percent Bodipy-positive cells” value under setting [2] amounted to 16.8 ± 4.6%. As for `CC(C)(C)CC(C)(C)c1cc(Cc2cc(C(C)(C)CC(C)(C)C)cc(-n3nc4ccccc4n3)c2O)c(O)c(-n2nc3ccccc3n2)c1`, the “percent Bodipy-positive cells” value under setting [2] was found to be 36.5 ± 2.9%. `c1cn2cc(-c3ccc4cn[nH]c4c3)nc(Nc3ccc(N4CCOCC4)cc3)c2n1` [Entospletinib]: the “percent Bodipy-positive cells” value under setting [5] came out at 91.6 ± 5.5% and the “percent Bodipy-positive cells” value under setting [2] came to 92.7 ± 1.9%.

Consider `CC(C)CCCCCCC/C=C\C(=O)O` [cis-.DELTA.2-11-methyl-Dodecenoic Acid], for which, under setting [6], the “percent Bodipy-positive cells” value is 20 ± 6.8%.

Regarding `Cc1cc2ncc(-c3ccccc3)nc2cc1C`, under setting [1], the “percent Bodipy-positive cells” value turned out to be 10.2 ± 0.37%. `Cn1cnc2c(F)c(Nc3ccc(Br)cc3F)c(C(=O)NOCCO)cc21`: the “percent Bodipy-positive cells” value under setting [1] came to 6.97 ± 1.3% and the “percent Bodipy-positive cells” value under setting [2] was 30.6 ± 8.1%. `C#Cc1cccc(Nc2ncnc3cc(OCCOC)c(OCCO)cc23)c1`: the “percent Bodipy-positive cells” value was 6.84 ± 1.5% under setting [1] and 12.5 ± 0.9% under setting [2].

For `COc1cc(OC2CCN(C)CC2)ccc1Nc1ncc2c(n1)n(C1CCCC1)c(=O)n2C`, the “percent Bodipy-positive cells” value under setting [2] worked out at 91.2 ± 4.5%. As to `O=Nc1ccc2oc(=O)ccc2c1` [6-Nitroso-1,2-benzopyrone], under setting [2], the “percent Bodipy-positive cells” value was 94.5 ± 6.4%. On to `CN(C(Cc1ccc(OS(=O)(=O)c2cccc3cnccc23)cc1)C(=O)N1CCN(c2ccccc2)CC1)S(=O)(=O)c1cccc2cnccc12` (stereo not drawn), for which the “percent Bodipy-positive cells” value worked out at 24.4 ± 6.1% under setting [1] and 50.2 ± 8% under setting [2].

As for `CCN(CC)CCOc1ccc(C(=C(Cl)c2ccccc2)c2ccccc2)cc1.O=C(O)CC(O)(CC(=O)O)C(=O)O` [Clomid], the “percent Bodipy-positive cells” value under setting [2] was determined as 98.17 ± 0.58%. Regarding `Cc1[nH]c(=O)c(C#N)cc1-c1ccc2nccn2c1` [Olprinone hydrochloride], the “percent Bodipy-positive cells” value under setting [2] was 15.2 ± 5.7%. Same read-out and setting: with `NCCCCCc1c[nH]cn1` [Impentamine dihydrobromide] the figure was 7.96 ± 0.42%. `NC(=O)c1cccc(-c2cccc(OC(=O)NC3CCCCC3)c2)c1`: the “percent Bodipy-positive cells” value under setting [6] amounted to 13.1 ± 3%, the “percent Bodipy-positive cells” value under setting [1] came to 9.46 ± 1.3% and the “percent Bodipy-positive cells” value under setting [2] came to 15.7 ± 0.8%. Regarding `CC(=O)O[C@H]1C(=O)[C@@]2(C)[C@H]([C@H](OC(=O)c3ccccc3)[C@]3(O)C[C@H](OC(=O)[C@H](O)[C@@H](NC(=O)c4ccccc4)c4ccccc4)C(C)=C1C3(C)C)[C@]1(OC(C)=O)CO[C@@H]1C[C@@H]2O` [Taxol = Paclitaxel], where the note is “library stock concentration: 5.8 mM”, the “percent Bodipy-positive cells” value was 9.67 ± 3.2%.

As to `CC(=O)O[C@H]1C(=O)[C@@]2(C)[C@H]([C@H](OC(=O)c3ccccc3)[C@]3(O)C[C@H](OC(=O)[C@H](O)[C@@H](NC(=O)c4ccccc4)c4ccccc4)C(C)=C1C3(C)C)[C@]1(OC(C)=O)CO[C@@H]1C[C@@H]2O` [Paclitaxel], the “percent Bodipy-positive cells” value worked out at 27.3 ± 4.7%. Further, the “percent Bodipy-positive cells” value under setting [7] is 17.1 ± 4.5%. Also, under setting [1], the “percent Bodipy-positive cells” value came out at 18.5 ± 6.8%.

As for `CC(=O)O[C@H]1C(=O)[C@@]2(C)[C@H]([C@H](OC(=O)c3ccccc3)[C@]3(O)C[C@H](OC(=O)[C@H](O)[C@@H](NC(=O)c4ccccc4)c4ccccc4)C(C)=C1C3(C)C)[C@]1(OC(C)=O)CO[C@@H]1C[C@@H]2O` [Taxol], the “percent Bodipy-positive cells” value by setting is: under setting [7], 10.7 ± 0.88%; under setting [2], 10.2 ± 5.4%.
